Paper PMC2946606
Results are given in words; binding and its absence hold for the method and conditions named. In cells and extracts the contact can be indirect. These calls come from enrichment with a bait or labelling near it, and not all partners need be listed.

Amino acid sequences for entries named in this document (tags omitted). A change or cut given only in a name is not applied to a line headed by its entry. Residues count along the entry.
UniProt Q92616, residues 840-1815: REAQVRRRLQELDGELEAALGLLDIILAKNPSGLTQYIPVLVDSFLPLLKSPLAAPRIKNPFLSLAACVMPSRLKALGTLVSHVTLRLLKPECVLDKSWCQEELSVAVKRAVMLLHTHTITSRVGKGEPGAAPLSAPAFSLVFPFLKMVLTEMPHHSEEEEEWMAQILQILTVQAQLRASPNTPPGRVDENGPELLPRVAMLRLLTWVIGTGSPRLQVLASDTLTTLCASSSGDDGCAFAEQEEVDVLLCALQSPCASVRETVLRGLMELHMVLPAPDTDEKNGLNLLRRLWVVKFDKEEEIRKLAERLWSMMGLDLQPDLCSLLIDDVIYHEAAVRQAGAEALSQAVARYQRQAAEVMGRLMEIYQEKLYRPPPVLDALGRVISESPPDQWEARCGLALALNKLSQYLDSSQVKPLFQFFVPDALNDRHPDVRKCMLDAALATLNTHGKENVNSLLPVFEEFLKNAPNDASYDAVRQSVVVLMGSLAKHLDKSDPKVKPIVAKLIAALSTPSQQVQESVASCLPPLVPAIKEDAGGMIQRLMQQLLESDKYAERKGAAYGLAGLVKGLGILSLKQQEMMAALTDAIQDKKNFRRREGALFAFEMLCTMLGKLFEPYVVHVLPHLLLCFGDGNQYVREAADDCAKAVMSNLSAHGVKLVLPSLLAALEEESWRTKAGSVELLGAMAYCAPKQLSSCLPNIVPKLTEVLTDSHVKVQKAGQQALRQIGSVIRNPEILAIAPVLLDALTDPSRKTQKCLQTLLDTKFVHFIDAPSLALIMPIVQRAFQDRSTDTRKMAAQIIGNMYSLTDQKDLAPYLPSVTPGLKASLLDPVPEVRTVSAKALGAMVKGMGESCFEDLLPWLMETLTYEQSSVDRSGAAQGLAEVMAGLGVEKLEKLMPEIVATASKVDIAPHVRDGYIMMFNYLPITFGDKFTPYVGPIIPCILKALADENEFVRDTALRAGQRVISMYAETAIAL
UniProt Q63009: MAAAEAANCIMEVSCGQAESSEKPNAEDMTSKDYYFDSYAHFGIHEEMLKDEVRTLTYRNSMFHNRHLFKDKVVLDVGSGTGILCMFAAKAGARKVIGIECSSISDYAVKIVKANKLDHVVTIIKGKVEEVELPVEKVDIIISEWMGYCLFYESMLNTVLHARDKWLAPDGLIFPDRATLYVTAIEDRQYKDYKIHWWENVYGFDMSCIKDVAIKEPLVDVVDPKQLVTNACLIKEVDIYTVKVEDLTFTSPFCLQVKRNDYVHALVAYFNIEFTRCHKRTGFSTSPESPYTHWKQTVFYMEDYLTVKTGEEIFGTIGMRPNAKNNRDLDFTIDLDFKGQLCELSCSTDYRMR

B1: ZNRD1 (zinc ribbon domain-containing 1) in rat liver nuclear extract (protein, UniProt Q6MFY5 1-123)
chain: MELARPCSNFQSDLDFCPDCGSVLPLPGVQDTVICPRCGFSIDVRDFGGKVVKTSVVFNKLGTVIPMSVDEGPESQGPVVDRRCSRCGHEGMAYYTRQMRSADEGQTVFYTCINCKFQEKEDS
B2: Med24/TRAP100 in rat liver nuclear extract (protein, UniProt Q4V8B3 1-987)
chain: MKVVNLKQAILQAWKERWSDYQWAINMKKFFPKGATWDILNLAEALLEQAMIGPSPNPLILSYLKYAISSQMVSYSSVLTAISKFDDFSRDLCVQALLDIMDMFCDRLSCHGKAEECIGLCRALLSALHWLLRCTAASAERLQEGLEAGSAVTGEKQLALCLQCLEKTLSSTKNRALLHIAKLEEASSWTAIEHCLLKLGEILANLSNPQLRSQAEHCGTLIRSIPTMLSVHSEQLHKTGFPTIHALILLEGTMNLTGEMQPLVEQLMMVKRMQHIPTPLFVLEIWKACFVGLIESPEGTQELKWTAFTYLKIPQVLVKLKKYFHGDKDFTEDVNCAFEFLLKLTPLLDKADQRCNCDCTNFLLQECNKQGLLSEASFASLVSKRTADRDPQLKSSENANIQPNPGLILRAEPTVTNILKTMDADHSKSPEGLLGVLGHMLSGKSLDLLLAAAAATGKLKSFARKFINLNEFTTHGSGESTKTASVRALLFDISFLMLCHVAQTYGSEVILSESSSGEEVPFFETWMQTCMPEEGKILNPDHPCFRPDSTKVESLVALLNNSSEMKLVQMKWHEACLSISAAILEILNAWENGVLAFESIQKITDNIKGKVCSLAVCAVAWLVAHVRMLGLDEREKSLQMIRQLAGPLYSENTLQFYNERVVIMNSILEHMCADVLQQTATQIKFPSTGVDTMPYWNLLPPKRPIKEVLTDIFAKVLEKGWVDSRSIHILDTLLHMGGVYWFCNNLIKELLKETRKEHTLRAVQLLYSIFCLDMQQVTLVLLGHILPGLLTDSSKWHSLMDPPGTALAKLAVWCALSSYSSHKGQASSRQKKRHREDIEDYISLFPVEDMQPSKLMRLLSSNEDDASILSSPTDRSMNSSLSASQLHTVNMRDPLNRVLANLFLLISSVLGSRTAGPHTQFVQWFMEECVDCLEQDSRGSILQFMPFTTVSELVKVSAMSSPKVVLAITDLSLPLGRQVAAKAIAAL
B3: Med20 in rat liver nuclear extract (protein, UniProt Q5XIE9 1-212)
chain: MGVTCVSQMPVAEGKSVQQTVELLTKKLEMLGAEKQGTFCVDCETYHTAASTLGSQGQAGKLMYVMHNSEYPLSCFALFENGPCLIADTNFDVLMVKLKGFFQSAKASKIETRGTRYQYCDFLVKVGTVTMGPSARGISVEVEYGPCVVASDCWSLLLEFLQSFLGSHTPGAPTVFGNRHDAVYGPADTMVQYMELFNKVRKQQQVPVAGIR

The molecules below were run against GST-ΔPRIC295^840–1815 (F2) (human) (UniProt Q92616) (assay: affinity purification with mass spectrometry; GST-ΔPRIC295^840–1815 (F2) as bait, rat liver nuclear extract; bound proteins on a 4–20% Tris-HCl gel, selected bands by MALDI-TOF; only the target purified).

binding | Molecule
binds | PRMT1 in rat liver nuclear extract (from UniProt Q63009 1-353) (enzyme)
binds | B1
binds | B2
binds | B3
